The values below come from publication PMC8754637.

The chains behind the UniProt entries cited, without tags or fusion partners.
UniProt P36594: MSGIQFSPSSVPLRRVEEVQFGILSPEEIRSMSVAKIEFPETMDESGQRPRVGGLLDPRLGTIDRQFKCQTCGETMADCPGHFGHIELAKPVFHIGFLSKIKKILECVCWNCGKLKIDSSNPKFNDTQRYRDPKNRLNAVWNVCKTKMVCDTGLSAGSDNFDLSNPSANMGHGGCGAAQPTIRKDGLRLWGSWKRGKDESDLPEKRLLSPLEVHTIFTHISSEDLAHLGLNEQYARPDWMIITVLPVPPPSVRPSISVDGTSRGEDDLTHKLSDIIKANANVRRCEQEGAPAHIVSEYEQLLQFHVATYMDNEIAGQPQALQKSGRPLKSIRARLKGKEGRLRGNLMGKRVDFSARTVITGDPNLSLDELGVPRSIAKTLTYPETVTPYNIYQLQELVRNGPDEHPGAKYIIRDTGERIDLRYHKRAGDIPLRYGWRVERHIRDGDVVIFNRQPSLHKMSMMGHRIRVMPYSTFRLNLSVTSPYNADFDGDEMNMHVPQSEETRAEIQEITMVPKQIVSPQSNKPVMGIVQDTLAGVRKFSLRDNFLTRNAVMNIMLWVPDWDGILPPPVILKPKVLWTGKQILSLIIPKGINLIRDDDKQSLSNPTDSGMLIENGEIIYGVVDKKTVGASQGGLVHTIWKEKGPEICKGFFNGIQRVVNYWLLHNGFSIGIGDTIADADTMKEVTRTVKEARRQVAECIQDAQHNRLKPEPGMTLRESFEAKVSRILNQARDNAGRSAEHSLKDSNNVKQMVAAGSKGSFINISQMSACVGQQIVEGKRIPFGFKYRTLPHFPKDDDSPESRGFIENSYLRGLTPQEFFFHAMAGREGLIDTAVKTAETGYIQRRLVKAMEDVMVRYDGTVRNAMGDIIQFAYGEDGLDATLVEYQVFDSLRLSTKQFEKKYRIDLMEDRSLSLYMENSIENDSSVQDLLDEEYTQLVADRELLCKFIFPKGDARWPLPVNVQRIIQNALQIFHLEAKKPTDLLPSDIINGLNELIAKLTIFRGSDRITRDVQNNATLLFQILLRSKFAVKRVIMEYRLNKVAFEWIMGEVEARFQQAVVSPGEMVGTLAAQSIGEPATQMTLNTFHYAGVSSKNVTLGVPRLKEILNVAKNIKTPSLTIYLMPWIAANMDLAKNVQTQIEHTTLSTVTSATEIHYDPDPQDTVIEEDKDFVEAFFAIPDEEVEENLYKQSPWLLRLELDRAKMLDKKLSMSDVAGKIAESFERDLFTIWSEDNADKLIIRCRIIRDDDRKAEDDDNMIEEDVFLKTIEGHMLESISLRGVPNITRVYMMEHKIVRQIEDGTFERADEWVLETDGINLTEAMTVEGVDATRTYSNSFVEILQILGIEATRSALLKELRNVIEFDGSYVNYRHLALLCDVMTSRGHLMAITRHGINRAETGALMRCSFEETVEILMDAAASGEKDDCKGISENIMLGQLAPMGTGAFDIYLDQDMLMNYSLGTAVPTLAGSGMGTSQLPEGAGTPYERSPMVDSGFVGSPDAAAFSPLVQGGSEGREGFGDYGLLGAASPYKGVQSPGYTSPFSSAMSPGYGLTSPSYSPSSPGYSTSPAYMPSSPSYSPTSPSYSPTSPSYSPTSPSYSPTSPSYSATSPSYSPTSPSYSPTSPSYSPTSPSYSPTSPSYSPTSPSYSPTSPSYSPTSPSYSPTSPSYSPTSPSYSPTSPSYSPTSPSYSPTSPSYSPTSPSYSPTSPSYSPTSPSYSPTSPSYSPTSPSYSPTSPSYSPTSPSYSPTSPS

Experiment [1] addresses T1, Flag tagged Rpb3 subunit of Pol II (S. pombe) (UniProt P37382).
T1 sequence: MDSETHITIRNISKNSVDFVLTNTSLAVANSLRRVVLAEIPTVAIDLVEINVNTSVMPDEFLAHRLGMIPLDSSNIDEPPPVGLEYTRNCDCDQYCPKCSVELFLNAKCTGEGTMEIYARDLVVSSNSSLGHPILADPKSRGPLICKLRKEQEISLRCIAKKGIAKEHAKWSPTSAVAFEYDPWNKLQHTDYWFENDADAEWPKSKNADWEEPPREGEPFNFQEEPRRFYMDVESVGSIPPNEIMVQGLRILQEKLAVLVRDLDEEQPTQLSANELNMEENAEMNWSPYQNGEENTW
Kind of experiment: co-IP; Flag-Rpb3 held on anti-Flag antibody-coated Dynabeads from DNase-treated S. pombe lysate (HEPES 20 mM, KAc 110 mM, Triton X-100 0.5%, Tween 20 0.1%, RNase inhibitor), 1 h at 4°C, 6 washes, eluted with Flag peptide; read by silver-stained SDS-PAGE, mass spectrometry and western blotting; wild-type, upf1Δ and Upf1-HA strains.

Experiment [2] addresses T2, Flag-tagged Upf1 (S. pombe) (UniProt Q09820).
T2 sequence: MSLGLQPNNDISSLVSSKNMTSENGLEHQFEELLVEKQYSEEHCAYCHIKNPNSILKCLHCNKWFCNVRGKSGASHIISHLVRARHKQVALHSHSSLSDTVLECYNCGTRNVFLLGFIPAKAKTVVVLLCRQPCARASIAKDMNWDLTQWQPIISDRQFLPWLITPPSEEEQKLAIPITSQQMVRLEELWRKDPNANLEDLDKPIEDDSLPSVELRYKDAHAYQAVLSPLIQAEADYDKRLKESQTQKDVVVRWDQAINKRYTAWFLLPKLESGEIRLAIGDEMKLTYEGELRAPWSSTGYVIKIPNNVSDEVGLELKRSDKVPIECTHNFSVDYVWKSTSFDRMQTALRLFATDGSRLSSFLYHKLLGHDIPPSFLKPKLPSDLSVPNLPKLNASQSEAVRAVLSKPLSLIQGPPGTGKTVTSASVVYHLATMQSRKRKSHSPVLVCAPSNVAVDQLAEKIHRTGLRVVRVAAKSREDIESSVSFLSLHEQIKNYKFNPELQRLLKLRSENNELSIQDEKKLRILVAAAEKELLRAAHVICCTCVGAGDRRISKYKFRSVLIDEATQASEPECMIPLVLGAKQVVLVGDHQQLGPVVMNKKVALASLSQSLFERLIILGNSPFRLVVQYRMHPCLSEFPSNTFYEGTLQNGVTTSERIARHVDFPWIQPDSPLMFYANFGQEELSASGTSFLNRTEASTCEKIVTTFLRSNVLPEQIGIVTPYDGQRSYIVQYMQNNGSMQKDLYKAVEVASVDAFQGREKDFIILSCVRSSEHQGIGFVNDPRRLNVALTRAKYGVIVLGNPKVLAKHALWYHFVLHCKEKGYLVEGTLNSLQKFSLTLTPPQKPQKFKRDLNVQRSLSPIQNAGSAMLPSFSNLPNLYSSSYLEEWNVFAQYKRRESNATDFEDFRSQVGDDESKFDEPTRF
Kind of experiment: co-IP; reverse experiment: Upf1-Flag held on anti-Flag antibody-coated Dynabeads from DNase-treated S. pombe lysate, same buffers, eluted with Flag peptide; read by western blotting. For orientation: Immunoblotting shows a protein as a band on a membrane.

Results are given in words; binding and its absence hold for the method and conditions named. Binding seen in cells or lysates may run through a third protein. Some results given as binding are weak or reduced against the parent protein; the word gives no strength. Where a sequence is shown, tags or fusion partners need not be part of it.

On to “Rpb1, largest subunit of Pol II (from UniProt P36594 1-1752)”, for which the binding entry was “binds” in experiment [1] and “no binding” in experiment [2].

B1: Upf1 tagged with HA (protein, UniProt Q09820 1-925)
chain: MSLGLQPNNDISSLVSSKNMTSENGLEHQFEELLVEKQYSEEHCAYCHIKNPNSILKCLHCNKWFCNVRGKSGASHIISHLVRARHKQVALHSHSSLSDTVLECYNCGTRNVFLLGFIPAKAKTVVVLLCRQPCARASIAKDMNWDLTQWQPIISDRQFLPWLITPPSEEEQKLAIPITSQQMVRLEELWRKDPNANLEDLDKPIEDDSLPSVELRYKDAHAYQAVLSPLIQAEADYDKRLKESQTQKDVVVRWDQAINKRYTAWFLLPKLESGEIRLAIGDEMKLTYEGELRAPWSSTGYVIKIPNNVSDEVGLELKRSDKVPIECTHNFSVDYVWKSTSFDRMQTALRLFATDGSRLSSFLYHKLLGHDIPPSFLKPKLPSDLSVPNLPKLNASQSEAVRAVLSKPLSLIQGPPGTGKTVTSASVVYHLATMQSRKRKSHSPVLVCAPSNVAVDQLAEKIHRTGLRVVRVAAKSREDIESSVSFLSLHEQIKNYKFNPELQRLLKLRSENNELSIQDEKKLRILVAAAEKELLRAAHVICCTCVGAGDRRISKYKFRSVLIDEATQASEPECMIPLVLGAKQVVLVGDHQQLGPVVMNKKVALASLSQSLFERLIILGNSPFRLVVQYRMHPCLSEFPSNTFYEGTLQNGVTTSERIARHVDFPWIQPDSPLMFYANFGQEELSASGTSFLNRTEASTCEKIVTTFLRSNVLPEQIGIVTPYDGQRSYIVQYMQNNGSMQKDLYKAVEVASVDAFQGREKDFIILSCVRSSEHQGIGFVNDPRRLNVALTRAKYGVIVLGNPKVLAKHALWYHFVLHCKEKGYLVEGTLNSLQKFSLTLTPPQKPQKFKRDLNVQRSLSPIQNAGSAMLPSFSNLPNLYSSSYLEEWNVFAQYKRRESNATDFEDFRSQVGDDESKFDEPTRF
In the case of B1, in experiment [1], the binding result is “no binding”.

B2: Upf1 (untagged, endogenous) (protein, UniProt Q09820 1-925)
chain: MSLGLQPNNDISSLVSSKNMTSENGLEHQFEELLVEKQYSEEHCAYCHIKNPNSILKCLHCNKWFCNVRGKSGASHIISHLVRARHKQVALHSHSSLSDTVLECYNCGTRNVFLLGFIPAKAKTVVVLLCRQPCARASIAKDMNWDLTQWQPIISDRQFLPWLITPPSEEEQKLAIPITSQQMVRLEELWRKDPNANLEDLDKPIEDDSLPSVELRYKDAHAYQAVLSPLIQAEADYDKRLKESQTQKDVVVRWDQAINKRYTAWFLLPKLESGEIRLAIGDEMKLTYEGELRAPWSSTGYVIKIPNNVSDEVGLELKRSDKVPIECTHNFSVDYVWKSTSFDRMQTALRLFATDGSRLSSFLYHKLLGHDIPPSFLKPKLPSDLSVPNLPKLNASQSEAVRAVLSKPLSLIQGPPGTGKTVTSASVVYHLATMQSRKRKSHSPVLVCAPSNVAVDQLAEKIHRTGLRVVRVAAKSREDIESSVSFLSLHEQIKNYKFNPELQRLLKLRSENNELSIQDEKKLRILVAAAEKELLRAAHVICCTCVGAGDRRISKYKFRSVLIDEATQASEPECMIPLVLGAKQVVLVGDHQQLGPVVMNKKVALASLSQSLFERLIILGNSPFRLVVQYRMHPCLSEFPSNTFYEGTLQNGVTTSERIARHVDFPWIQPDSPLMFYANFGQEELSASGTSFLNRTEASTCEKIVTTFLRSNVLPEQIGIVTPYDGQRSYIVQYMQNNGSMQKDLYKAVEVASVDAFQGREKDFIILSCVRSSEHQGIGFVNDPRRLNVALTRAKYGVIVLGNPKVLAKHALWYHFVLHCKEKGYLVEGTLNSLQKFSLTLTPPQKPQKFKRDLNVQRSLSPIQNAGSAMLPSFSNLPNLYSSSYLEEWNVFAQYKRRESNATDFEDFRSQVGDDESKFDEPTRF
In the case of B2, the binding entry in experiment [1] is recorded as “no binding”.
